Earlier results, collected in patent publication US9340538B2, “Dihydropyrimidine compounds and their application in pharmaceuticals” (SUNSHINE LAKE PHARMA CO., LTD., priority 2013, dated 2016).
At least one structure is not confirmed: it was looked up by name or label, or the drawing left a doubt.

Tested on: HBV
Settings: Science, 2003, 299, 893-896; cited from earlier work

For `Nc1ccn([C@@H]2CS[C@H](CO)O2)c(=O)n1` [lamivudine], the IC50 is given as 300 nM.
